Reference: US20230399361A1 (UNIVERSITY OF NOTRE DAME DU LAC, priority 2022, published 2023)

Assay: general procedure: Fmoc solid-phase peptide synthesis; Fmoc-capped polystyrene Rink amide MBHA resin (100-200 mesh); HCTU/NMM
Settings: whole synthesis, scale of the general procedure 0.05-0.15 mmol

In order of falling isolated yield:
1. Ac-Val-Gln-Ile-Val-Tyr-aLys-NH2  99%
2. Ac-Val-Gln-Ile-aVal-Tyr-Lys-NH2  88%
3. Ac-aVal-Gln-Ile-Ile-Asn-Lys-NH2  81%
4. Ac-VQI[aIle]NK-NH2  75%
5. Ac-aVal-Gln-Ile-Val-aTyr-Lys-NH2  58%
6. Ac-aVal-Gln-aIle-Val-Tyr-Lys-NH2  52%
7. Ac-Val-Gln-aIle-Val-aTyr-Lys-NH2  44%
8. Ac-Val-Gln-Ile-aVal-Tyr-aLys-NH2  42%
9. Ac-Val-Gln-Ile-Val-aTyr-Lys-NH2  38%
10. Ac-aVal-Gln-aIle-Val-aTyr-Lys-NH2  28%

[ ]: non-standard residue; d: D form. aIle = CC[C@@H](C)[C@H](N)C(=O)O
